# Assay: Laboratory flotation test separating molybdenite from Cu/Mo concentrate with depressant
# Conditions: for K (ratio of Mo concentration removed): K=[% Mo in concentrate-% Mo in tail]/[% Mo in feed-% Mo in tail]; for Conc., Wt % (weight percent floated compared to the feed weight) / Cu % (assay of the concentrate) / Fe % (assay of the concentrate) / Mo % (assay of the concentrate) / Tail Mo % (tailing molybdenum assay): lab flotation, averages of multiple series of testing
compound,measurement,value
Calcium Polysulfide [CaPS],K (ratio of Mo concentration removed),11.3
same,"Conc., Wt % (weight percent floated compared to the feed weight)",8.8%
same,Cu % (assay of the concentrate),18.9%
same,Fe % (assay of the concentrate),17.9%
same,Mo % (assay of the concentrate),15.9%
same,Tail Mo % (tailing molybdenum assay),0.07%
Potassium Polysulfide [KPS],K (ratio of Mo concentration removed),10.6
same,"Conc., Wt % (weight percent floated compared to the feed weight)",9.4%
same,Cu % (assay of the concentrate),17.3%
same,Fe % (assay of the concentrate),18.9%
same,Mo % (assay of the concentrate),14.9%
same,Tail Mo % (tailing molybdenum assay),0.05%
Sodium Polysulfide [NaPS],K (ratio of Mo concentration removed),8.7
same,"Conc., Wt % (weight percent floated compared to the feed weight)",11.5%
same,Cu % (assay of the concentrate),13.1%
same,Fe % (assay of the concentrate),7.3%
same,Mo % (assay of the concentrate),36.6%
same,Tail Mo % (tailing molybdenum assay),0.15%
"S [NaHS, Sodium hydrosulfide, reference compound]",K (ratio of Mo concentration removed),10.5
same,"Conc., Wt % (weight percent floated compared to the feed weight)",9.5%
same,Cu % (assay of the concentrate),16.6%
same,Fe % (assay of the concentrate),18.6%
same,Mo % (assay of the concentrate),15.2%
same,Tail Mo % (tailing molybdenum assay),0.04%

# — patent US10717090B2, “Depression of copper and iron sulfides in molybdenite flotation circuits” (TESSENDERLO KERLEY, INC., priority 2014, dated 2020)
